The list is a part of this screen's results and no random one: it covers a few groups of compounds. Other doses and runs of a compound may be missing. T/C: endpoint of the treated group in % of that of the vehicle group. Some entries give survivors of the animals treated and no T/C: the source holds a T/C of zero for them, seemingly a mark for toxic or unscored doses. Survivors were counted at the toxicity check, usually on the fifth day, unless a day is given; later deaths do not show. Schedules are NCI's codes, taken here to give the interval after Q, in days (D) or hours (H), and the number of doses after X. Where survival is the endpoint, the PubChem record calls one and a half times the control and up active, and a quarter to a half above the control has no call in these data; cut-offs in other NCI protocols can differ. Some entries hold several experiments; the results are listed from low to high. Some T/C values are followed by the survivors on the day toxicity was checked, most often the fifth; without a count or a note in brackets, all were alive then.
Test system: CD2F1 mice, L1210 leukemia ip, survival T/C
Test: NCI In Vivo Anticancer Drug Screen. Data for tumor model L1210 Leukemia (intraperitoneal) in CD2F1 (CDF1) mice
Conditions: T/C endpoint: mean survival time, higher T/C = longer survival
Procedure, shortened: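 Antitumor effect is scored in animals hosting a serially transplanted tumor. Values compare compound-dosed animals against vehicle-only controls as a simple quotient.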

[1] = dose: 5.0 mg/kg/injection, schedule: Q01DX009 (ip), vehicle: saline with Tween-80
[2] = dose: 10.0 mg/kg/injection, schedule: Q01DX009 (ip), vehicle: saline with Tween-80

## NNC(=O)c1cc([N+](=O)[O-])cc([N+](=O)[O-])c1
[1]
  T/C: 94 % of control
dose: 5.0 mg/kg/injection, schedule: Q04DX003 (ip), vehicle: saline with Tween-80
  T/C: 86 % of control
[2]
  T/C: 101 % of control
dose: 10.0 mg/kg/injection, schedule: Q04DX003 (ip), vehicle: saline with Tween-80
  T/C: 87 % of control
dose: 20.0 mg/kg/injection, schedule: Q01DX009 (ip), vehicle: saline with Tween-80
  T/C: 94 % of control
dose: 20.0 mg/kg/injection, schedule: Q04DX003 (ip), vehicle: saline with Tween-80
  T/C: 93 % of control
dose: 100.0 mg/kg/injection, schedule: Q04DX003 (ip), vehicle: saline with Tween-80
  survivor count: 0 of 6
dose: 200.0 mg/kg/injection, schedule: Q04DX003 (ip), vehicle: saline with Tween-80
  survivor count: 0 of 6
dose: 400.0 mg/kg/injection, schedule: Q04DX003 (ip), vehicle: saline with Tween-80
  survivor count: 0 of 6

## Cc1cn(C2CC3O[P@](C)(=O)OCC3O2)c(=O)[nH]c1=O (stereo partly drawn)
dose: 12.5 mg/kg/injection, schedule: Q01DX005 (ip), vehicle: water
  T/C: 101 % of control
dose: 25.0 mg/kg/injection, schedule: Q01DX005 (ip), vehicle: water
  T/C: 107 % of control
dose: 50.0 mg/kg/injection, schedule: Q01DX005 (ip), vehicle: water
  T/C: 107 % of control
dose: 100.0 mg/kg/injection, schedule: Q01DX005 (ip), vehicle: water
  T/C: 101 % of control
dose: 200.0 mg/kg/injection, schedule: Q01DX005 (ip), vehicle: water
  T/C: 107 % of control

## CCN(CC)CCOC(=O)C(O)(c1ccccc1)C1C=CCCC1 (stereo not drawn)
dose: 75.0 mg/kg/injection, schedule: Q01DX001 (ip), vehicle: saline
  T/C: 94 % of control
dose: 150.0 mg/kg/injection, schedule: Q01DX001 (ip), vehicle: saline
  T/C: 94 % of control

## O=P1(N(CCCl)CCCl)OCCCN1CCCl (stereo not drawn)
dose: 12.5 mg/kg/injection, schedule: Q01DX001 (ip), vehicle: water
  T/C: 95 and 103 % of control
dose: 25.0 mg/kg/injection, schedule: Q01DX001 (ip), vehicle: DMSO
  T/C: 107 % of control
dose: 25.0 mg/kg/injection, schedule: Q01DX001 (ip), vehicle: water
  T/C: 107 and 109 % of control
dose: 50.0 mg/kg/injection, schedule: Q01DX001 (ip), vehicle: DMSO
  T/C: 133 % of control
dose: 50.0 mg/kg/injection, schedule: Q01DX001 (ip), vehicle: water
  T/C: 128 and 139 % of control
dose: 100.0 mg/kg/injection, schedule: Q01DX001 (ip), vehicle: DMSO
  T/C: 234 % of control
dose: 100.0 mg/kg/injection, schedule: Q01DX001 (ip), vehicle: water
  T/C: 166 and 175 % of control
dose: 200.0 mg/kg/injection, schedule: Q01DX001 (ip), vehicle: DMSO
  T/C: 343 % of control
dose: 200.0 mg/kg/injection, schedule: Q01DX001 (ip), vehicle: water
  T/C: 330 and 357 % of control
dose: 400.0 mg/kg/injection, schedule: Q01DX001 (ip), vehicle: DMSO
  T/C: 468 % of control

## CC12CCCC1(OO)OOC2=O (stereo not drawn)
dose: 2.5 mg/kg/injection, schedule: Q01DX009 (ip), vehicle: saline with Tween-80
  T/C: 102 % of control
dose: 5.0 mg/kg/injection, schedule: Q01DX001 (ip), vehicle: saline with Tween-80
  T/C: 91 % of control
[1]
  T/C: 93 % of control
dose: 10.0 mg/kg/injection, schedule: Q01DX001 (ip), vehicle: saline with Tween-80
  T/C: 93 % of control
[2]
  T/C: 94 % of control [4 of 6 alive]
dose: 20.0 mg/kg/injection, schedule: Q01DX001 (ip), vehicle: saline with Tween-80
  survivor count: 0 of 6
dose: 100.0 mg/kg/injection, schedule: Q01DX001 (ip), vehicle: saline with Tween-80
  survivor count: 0 of 6
dose: 200.0 mg/kg/injection, schedule: Q01DX001 (ip), vehicle: saline with Tween-80
  survivor count: 0 of 6
dose: 400.0 mg/kg/injection, schedule: Q01DX001 (ip), vehicle: saline with Tween-80
  survivor count: 0 of 6

## O=P(Cl)(N(CCCl)CCCl)N1CCC(O)CC1 (stereo not drawn)
dose: 15.6 mg/kg/injection, schedule: Q01DX001 (ip), vehicle: DMSO
  T/C: 103 % of control
dose: 31.3 mg/kg/injection, schedule: Q01DX001 (ip), vehicle: DMSO
  T/C: 94 % of control
dose: 62.5 mg/kg/injection, schedule: Q01DX001 (ip), vehicle: DMSO
  T/C: 105 % of control
dose: 125.0 mg/kg/injection, schedule: Q01DX001 (ip), vehicle: DMSO
  T/C: 107 % of control
dose: 250.0 mg/kg/injection, schedule: Q01DX001 (ip), vehicle: DMSO
  T/C: 107 % of control
dose: 500.0 mg/kg/injection, schedule: Q01DX001 (ip), vehicle: DMSO
  T/C: 113 % of control
dose: 750.0 mg/kg/injection, schedule: Q01DX001 (ip), vehicle: DMSO
  T/C: 128 % of control [5 of 6 alive]
dose: 1000.0 mg/kg/injection, schedule: Q01DX001 (ip), vehicle: DMSO
  survivor count: 0 of 6

— PubChem BioAssay AID256 (DTP/NCI, 2004)
